Test results from article PMC6158189, “A pharmacological probe identifies cystathionine β-synthase as a new negative regulator for ferroptosis” (Cell Death & Disease, 2018).

Assay: H2S-donor (NaHS) interfering assay
Conditions: 100 μM NaHS, no CBS

Cn1nc(Cc2ccccc2)nc2c(=O)n(C)c(=O)nc1-2 [CH004, 3-benzyl-1,6-dimethylpyrimido[5,4-e][1,2,4]triazine-5,7(1H,6H)-dione]
concentration from which a significant amount of H2S is trapped: ≥ 50 µM
absorption of H2S released from NaSH (1 or 10 μM compound): did not absorb much
